Test results published in patent publication US4784988A (Spa Societa' Prodotti Antibiotici S.p.A., priority 1985, dated 1988).

Test: general procedure: Boc solid-phase peptide synthesis; BOC-amino acid p-nitrophenyl esters; N-hydroxysuccinimide esters

For “BOC-Ala-(O-benzyl)Thr-Asn-(Nω -nitro)Arg benzyl ester”, the step yield (coupling step) was “yield 97.4%”.

For “BOC-Gln-Ala-(O-benzyl)Thr-Asn-(Nω -nitro)Arg benzyl ester”, the step yield (coupling step) was “yield 91.7%”.

For NH2 -Gln-Ala-Thr-Asn-Arg-COOH, the step yield (late stage modification step) was “Yield 78%”.

With PEPTIDE1{N.T.D.G.S.T.D.Y}$$$$V2.0 the crude yield (whole synthesis, overall, calculated on the first amino acid condensed) was 65%.

In the case of “TFA NH2 -Ala-(O-benzyl)Thr-Asn-(Nω -nitro)Arg benzyl ester”, the step yield (late stage modification step) is reported as “Yield=98.9%”.

With “TFA.NH2 -Gln-Ala-(O-benzyl)Thr-Asn-(Nω -nitro)Arg benzyl ester” the step yield (late stage modification step) was “Yield 100%”.

HELM strings list residues between dots; [ac] is acetyl, [am] amide, other brackets name non-standard units.
